Publication PMC7341485 (Chemical research in toxicology, 2019)
Entries after “also recorded” stand apart in the source; their conditions may differ.

Test system: iPSC-derived cortical glutamatergic neurons
Assay: Neurite outgrowth assay in iPSC-derived neurons
Type: cell-based, human
Details: 24 h treatment, Figure 5D

`CC(C)n1nc(-c2cc3cc(O)ccc3[nH]2)c2c(N)ncnc21` [pp242] was tested, and the “inhibition of neurite outgrowth, in words” value was “did not inhibit neurite outgrowth; also recorded: didn’t inhibit neurite outgrowth”.
